# Data reported in PubChem BioAssay (Tox21).
# Sequences of proteins named here, by UniProt entry; tags and fusion partners are left off. A change or cut given only in a name is not applied to a line headed by its entry.
# UniProt P11229: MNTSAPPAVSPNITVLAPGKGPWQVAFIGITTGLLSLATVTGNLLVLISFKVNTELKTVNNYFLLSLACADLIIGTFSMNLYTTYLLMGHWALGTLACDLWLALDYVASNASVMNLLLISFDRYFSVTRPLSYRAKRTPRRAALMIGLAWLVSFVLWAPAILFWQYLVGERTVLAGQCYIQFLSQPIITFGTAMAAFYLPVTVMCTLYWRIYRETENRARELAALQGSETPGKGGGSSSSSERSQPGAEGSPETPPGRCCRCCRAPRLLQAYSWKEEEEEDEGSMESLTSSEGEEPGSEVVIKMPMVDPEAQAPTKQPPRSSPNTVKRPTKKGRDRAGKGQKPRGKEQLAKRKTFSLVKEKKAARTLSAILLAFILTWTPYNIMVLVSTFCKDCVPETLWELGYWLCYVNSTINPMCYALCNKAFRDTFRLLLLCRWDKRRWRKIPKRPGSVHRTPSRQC
# UniProt P14416, whole entry, looked up: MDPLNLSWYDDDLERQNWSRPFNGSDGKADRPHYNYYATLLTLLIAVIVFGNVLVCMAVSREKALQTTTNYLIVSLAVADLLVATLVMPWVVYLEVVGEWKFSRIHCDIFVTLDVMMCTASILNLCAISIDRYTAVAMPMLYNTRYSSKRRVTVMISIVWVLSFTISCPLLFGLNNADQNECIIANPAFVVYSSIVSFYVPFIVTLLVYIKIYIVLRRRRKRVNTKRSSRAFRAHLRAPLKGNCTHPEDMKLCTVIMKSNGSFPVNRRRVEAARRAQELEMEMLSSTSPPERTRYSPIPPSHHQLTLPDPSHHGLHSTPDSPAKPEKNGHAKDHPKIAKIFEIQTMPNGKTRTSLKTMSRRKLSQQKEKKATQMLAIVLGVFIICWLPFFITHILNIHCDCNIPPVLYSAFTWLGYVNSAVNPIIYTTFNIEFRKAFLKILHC
# Inconclusive results, whose numbers are uncertain, are shown with a selection of clear calls. For some assays here: Potencies of inconclusive entries are doubtful fits and often do not repeat. The source holds several records for some structures; these can differ, active in one and inactive in another. Activity calls are given as the source filed them. Unless noted, calls follow the shape of the full dose curve.
# Assays:
# [1] = Nuclear factor erythroid 2-related factor 2/antioxidant responsive element (Nrf2/ARE) small molecule agonists: luciferase reporter gene qHTS assay in human keratinocytes (AID 1919969); conditions: KeratinoSens HaCaT ARE-luciferase, luminescence, 24 h; activity, positive = activation: at 92.4 µM (top of the series); also: nearly all actives have a fitted effect of over 35% in size; also: potency is read from the fitted curve at half-maximal effect; as to activity, positive = activation: % is scaled to controls: 0 for no effect and ±100 for the full control effect
# [2] = biological target: Muscarinic acetylcholine receptor M1 (Homo sapiens) (UniProt P11229); assay: Cholinergic receptor muscarinic 1 (CHRM1) small molecule antagonists, cell-based qHTS assay (AID 1963588); also: potency is read from the fitted curve at half-maximal effect; nearly all actives have a fitted effect of over 40% in size
# Summary of the method: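 CHRM1-CHO calcium-flux assay, antagonist mode. Cells were seeded 18 h, dye-loaded 1 h at 37 C and given compound for 5 min at RT, then acetylcholine was added at 50nM. FDSS fluorescence was read 3 min; 15 concentrations, three runs.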
# [3] = biological target: Beta-2 adrenergic receptor (Homo sapiens) (UniProt P07550); assay: Adrenergic beta2 receptor (ADRB2) small molecule agonists, cell-based qHTS assay (AID 1963593); conditions: CHO-ADRB2 cells, cAMP HTRF, 30 min; also: potency is read from the fitted curve at half-maximal effect;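 as to activation: CHO cells stably overexpressing human ADRB2; % is scaled to controls: 0 for no effect and ±100 for the full control effect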
# Summary of the method: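 CHO cells stably over-expressing ADRB2 were plated overnight at 37C, then dosed with compounds plus a stimulation mix containing 100uM IBMX and 25uM Ro-20-1724 for 0.5hr at room temperature. cAMP was measured by HTRF competition, 1hr.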
# [4] = cAMP Responsive Elements (CRE) small molecule agonists, cell-based qHTS assay (AID 1963590); conditions: CRE-bla HEK293T, beta-lactamase FRET ratio, 3 h; activation: at 92.4 µM (top of the series) unless noted; also: potency is read from the fitted curve at half-maximal effect
# Summary of the method: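 FRET-based beta-lactamase readout (LiveBLAzer B/G, 2 h RT) quantified CRE activation in HEK 293T CRE-bla cells after 3 h treatment with DMSO-dissolved compounds.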
# [5] = cAMP Responsive Elements (CRE) small molecule antagonists, cell-based qHTS assay (AID 1963591; active = well fitted inhibition curve with a large enough effect in the signal ratio in the repeat runs, not every such curve was filed as active; inconclusive = weak or mixed curves, or effect the other way; the % refers to the signal ratio; also: potency is read from the fitted curve at half-maximal effect; as to activity change, negative = inhibition: % is scaled to controls: 0 for no effect and ±100 for the full control effect); conditions: CRE-bla HEK293T, beta-lactamase FRET ratio; activity change, negative = inhibition: at 92.4 µM (top of the series) unless noted
# Summary of the method: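 qHTS in CRE-bla HEK 293T cells: compound in DMSO, then 0.25 uM NKH477 (final), 3 h at 37 °C/5% CO2; beta-lactamase FRET read-out after 2 h substrate incubation.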
# [6] = biological target: Beta-2 adrenergic receptor (Homo sapiens) (UniProt P07550); assay: Adrenergic beta2 receptor (ADRB2) small molecule antagonists, cell-based qHTS assay (AID 1963592); conditions: CHO-ADRB2 cells, isoproterenol-stimulated cAMP HTRF ratio, 0.5 h; activity change, negative = inhibition: at 92.4 µM (top of the series) unless noted; also: nearly all actives have a fitted effect of over 50% in size; also: potency is read from the fitted curve at half-maximal effect
# Summary of the method: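 Cells (CHO, stable ADRB2 overexpression) incubated 18-20hr at 37C; compounds added from DMSO; agonist mix (1nM isoproterenol, 100uM IBMX, 25uM Ro-20-1724) added; 0.5hr RT; d2-cAMP and anti-cAMP-cryptate added; 1hr RT; 665/615 nm read.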
# [7] = biological target: D(2) dopamine receptor (Homo sapiens) (UniProt P14416); assay: Dopamine D2 receptor (DRD2) small molecule antagonists, cell-based qHTS assay (AID 1963595; active = well fitted inhibition curve with a large enough effect in the signal ratio in the repeat runs, with a control signal flat; inconclusive = weak or mixed curves, or effect the other way; the % refers to the signal ratio; also: % is scaled to controls: 0 for no effect and ±100 for the full control effect); conditions: HEK293-DRD2 cAMP HTRF antagonist mode; activity change, negative = inhibition: at 92.4 µM (top of the series) unless noted
# Summary of the method: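 HEK293 cells stably expressing DRD2 were preincubated with 0.1 mM Ro20-1724, then with compound for 10 min at room temperature. Cells were stimulated with 200 nM NKH477 plus 12 nM quinpirole for 30 min, and cAMP was read by HTRF.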
# [8] = activation: at 92.4 µM (top of the series) unless noted
smiles,measurement,setting,value
NCCOCCOCCN,Potency,[1],inactive
same,Potency,[2],"inconclusive: 13.3 µM [inhibitor, partial curve]"
same,Potency,[3]; [8],inactive
CCCCc1ccc2c(n1)[C@@H](c1ccc(OC)cc1C[C@H](C)C(=O)O)[C@H](C(=O)O)[C@H]2c1ccc2c(c1)OCO2,Potency,[1],inactive
same,Potency,[4],"inconclusive: 61.1 µM [rising, partial curve, poor fit]"
same,"activity change, negative = inhibition",[5],inconclusive: -1.57%
same,Potency,[6],inactive
same,Potency,[3]; [8],inactive
CO[Si](CCCOCC1CO1)(OC)OC (stereo not given),Potency,[1],"inconclusive: 61.1 µM [activator, single point]"
same,Potency,[4],"inconclusive: 77 µM [rising, partial curve, poor fit]"
same,Potency,[6],inactive
same,Potency,[3]; [8],"inconclusive: 4.86 µM [inhibitor, partial curve, poor fit]"
same,activation,[3]; [8],inconclusive: 2.09%
COc1cc2c(cc1OC)C(C(C(=O)N(CCc1ccc(OC)c(OC)c1OC)CCc1ccc(OC)c(OC)c1OC)c1ccccc1)=NCC2 (stereo not given),Potency,[1],inactive
same,Potency,[4],"inconclusive: 26.6 µM [activator, partial curve]"
same,Potency,[5],"inconclusive: 23.7 µM [fluorescent, partial curve, poor fit]"
same,Potency,[6],"inconclusive: 33.5 µM [inhibitor, single point]"
same,Potency,[3]; [8],"inconclusive: 16.8 µM [inhibitor, partial curve]"
same,"activity change, negative = inhibition",[7],inconclusive: -23.7% [at 42.5 µM]
CCC(Cl)CC(Cl)C(Cl)C(Cl)C(Cl)C(C)Cl (stereo not given),Potency,[1],inconclusive: 1.19 µM [activator]
same,Potency,[4],"inconclusive: 1.67 µM [rising, full curve]"
same,"activity change, negative = inhibition",[5],inactive: 6.46% [at 18.9 µM]
same,activation,[3]; [8],inconclusive: -0.73% [at 19 µM]
O=C(O)CCN(C1(C(=O)NO)CCCC1)S(=O)(=O)c1ccc(Oc2ccc(F)cc2)cc1,Potency,[1],inactive
same,Potency,[4],inactive
same,Potency,[5],"inconclusive: 34.4 µM [inhibitor, partial curve]"
same,Potency,[3]; [8],inactive
O=C1c2ccccc2C(=O)C1c1nc2ccccc2c(Br)c1O,Potency,[1],active: 24.3 µM
same,Potency,[4],"inconclusive: 24.3 µM [rising, partial curve]"
same,Potency,[5],"inconclusive: 24.3 µM [fluorescent, partial curve]"
O=C(O)c1ccc2cc(O)ccc2c1,Potency,[1],inactive
same,Potency,[4],"inconclusive: 47.9 µM [rising, partial curve]"
same,"activity change, negative = inhibition",[5],inconclusive: 2.53%
same,Potency,[3]; [8],inactive
CC1=CCC(C(C)(C)O)CC1 (stereo not given),Potency,[1],"inconclusive: 27.5 µM [activator, single point]"
same,Potency,[4],inactive
same,Potency,[6],inactive
same,Potency,[3]; [8],"inconclusive: 15.4 µM [inhibitor, partial curve, poor fit] and inactive"
CCCCCC=O,Potency,[1],"inconclusive: 2.43 µM [activator, single point]"
same,Potency,[2],active: 0.0119 µM
same,Potency,[5],inactive
same,activation,[3]; [8],inconclusive: -33.5%
same,activation,[3]; at 92.4 µM (top of the series),inactive: 16.2%
CCCCC(CC)COCCCN (stereo not given),Potency,[1],"inconclusive: 67.8 µM [activator, single point]"
same,Potency,[4],"inconclusive: 42.8 µM [rising, partial curve, poor fit]"
same,"activity change, negative = inhibition",[6],inconclusive: -29.9%
CC1=CCC(C(C)C)C=C1 (stereo not given),Potency,[1],"inconclusive: 61.1 µM [activator, single point]"
same,Potency,[4],inactive
CCCCCN(CCCOC)C(=O)C(CCC(=O)O)NC(=O)c1ccc(Cl)c(Cl)c1 (stereo not given),Potency,[1],inactive
same,Potency,[4],"inconclusive: 29.8 µM [rising, partial curve]"
same,"activity change, negative = inhibition",[5],inconclusive: 8.95% [at 42.4 µM]
same,activation,[3]; [8],inconclusive: -6.65% [at 42.5 µM]
CCc1cccc(CC)c1N(COC)C(=O)CS(=O)(=O)O,Potency,[1],inactive
same,Potency,[4],inactive
same,Potency,[5],inactive
same,activation,[3]; [8],inconclusive: 13.7%
Cc1c(F)cc2c(=O)c(C(=O)O)cn3c2c1CCC3C (stereo not given),Potency,[1],inactive
same,Potency,[4],"inconclusive: 8.41 µM [rising, full curve]"
same,"activity change, negative = inhibition",[5],inconclusive: 0.755% [at 42.4 µM]
same,Potency,[3]; [8],inactive
NC(Cc1ccc(F)cc1)C(=O)O (stereo not given),Potency,[1],"inconclusive: 2.64 µM [activator, single point]"
same,activation,[4],inactive: -1.9% [at 8.39 µM]
OC[C@H]1O[C@@H]2O[C@H]3[C@H](O)[C@@H](O)[C@@H](O[C@H]4[C@H](O)[C@@H](O)[C@@H](O[C@H]5[C@H](O)[C@@H](O)[C@@H](O[C@H]6[C@H](O)[C@@H](O)[C@@H](O[C@H]7[C@H](O)[C@@H](O)[C@@H](O[C@H]1[C@H](O)[C@H]2O)O[C@@H]7CO)O[C@@H]6CO)O[C@@H]5CO)O[C@@H]4CO)O[C@@H]3CO,Potency,[1],"inconclusive: 20.4 µM [activator, partial curve]"
same,Potency,[4],inactive
same,Potency,[5],inconclusive: 12.9 µM [cytotoxic]

# No new results follow: entries from further up.
smiles,measurement,setting,value
CC1=CCC(C(C)(C)O)CC1 (stereo not given),Potency,[6],inactive
same,Potency,[3]; [8],"inconclusive: 15.4 µM [inhibitor, partial curve, poor fit] and inactive"
CCCCCC=O,Potency,[1],"inconclusive: 2.43 µM [activator, single point]"
same,Potency,[2],active: 0.0119 µM
same,Potency,[5],inactive
same,activation,[3]; [8],inconclusive: -33.5%
same,activation,[3]; at 92.4 µM (top of the series),inactive: 16.2%
CCCCC(CC)COCCCN (stereo not given),Potency,[1],"inconclusive: 67.8 µM [activator, single point]"
same,Potency,[4],"inconclusive: 42.8 µM [rising, partial curve, poor fit]"
same,"activity change, negative = inhibition",[6],inconclusive: -29.9%
CC1=CCC(C(C)C)C=C1 (stereo not given),Potency,[1],"inconclusive: 61.1 µM [activator, single point]"
same,Potency,[4],inactive
CCCCCN(CCCOC)C(=O)C(CCC(=O)O)NC(=O)c1ccc(Cl)c(Cl)c1 (stereo not given),Potency,[1],inactive
same,Potency,[4],"inconclusive: 29.8 µM [rising, partial curve]"
same,"activity change, negative = inhibition",[5],inconclusive: 8.95% [at 42.4 µM]
same,activation,[3]; [8],inconclusive: -6.65% [at 42.5 µM]
CCc1cccc(CC)c1N(COC)C(=O)CS(=O)(=O)O,Potency,[1],inactive
same,Potency,[4],inactive
same,Potency,[5],inactive
same,activation,[3]; [8],inconclusive: 13.7%

# At a glance, some entries already given:
smiles,measurement,setting,value
CCCCc1ccc2c(n1)[C@@H](c1ccc(OC)cc1C[C@H](C)C(=O)O)[C@H](C(=O)O)[C@H]2c1ccc2c(c1)OCO2,Potency,[4],"inconclusive: 61.1 µM [rising, partial curve, poor fit]"
same,"activity change, negative = inhibition",[5],inconclusive: -1.57%
